# Results: the supplement of paper PMC9744312
# Structures can show the parent of a compound that is named as a salt. This is one part of the list. This is a noisy data set.
# System: Peyronie's disease tunica albuginea primary fibroblasts
# Experiment: cell viability (DRAQ5 nuclear stain) relative to TGF-beta1-only control; higher = more viable cells
# Settings: 10 µM; TGF-beta1 10 ng/mL; 72 h
row,Structure (SMILES),cell viability [%]
1,NC[C@H](O)c1ccc(O)c(O)c1 [Noradrenaline bitartrate monohydrate],90
2,O=C(O)C1=C(CSc2nnnn2CS(=O)(=O)O)CS[C@@H]2[C@H](NC(=O)[C@H](O)c3ccccc3)C(=O)N12 [Cefonicid sodium],85.3
3,C=C[C@]1(C)C[C@@H](OC(=O)CSC(C)(C)CNC(=O)[C@H](N)C(C)C)[C@]2(C)[C@H](C)CC[C@]3(CCC(=O)[C@H]32)[C@@H](C)[C@@H]1O [Valnemulin HCl],75.7
4,CCc1cc2c(cc1CC)CC(NC[C@H](O)c1ccc(O)c3[nH]c(=O)ccc13)C2 [Indacaterol],101
5,CCc1cc2c(cc1CC)CC(NC[C@H](O)c1ccc(O)c3[nH]c(=O)ccc13)C2 [Indacaterol Maleate],86.2
6,CC(=O)Nc1nnc(S(N)(=O)=O)s1 [Acetazolamide],76.2
7,CC(C)Oc1ccc2c(=O)c(-c3ccccc3)coc2c1 [Ipriflavone (Osteofix)],93.4
8,"Cc1cc(Nc2cc(N3CCN(C)CC3)nc(Sc3ccc(NC(=O)C4CC4)cc3)n2)n[nH]1 [Tozasertib (VX-680, MK-0457)]",78.9
9,Clc1ccc2nsnc2c1NC1=NCCN1 [Tizanidine],109
10,Clc1ccc2nsnc2c1NC1=NCCN1 [Tizanidine HCl],95.7
11,O=C1O[C@H]([C@@H](O)CO)C([O-])=C1O.[Na+] [Sodium ascorbate],98.1
12,CCCCOc1cc(C(=O)OCCN(CC)CC)ccc1N [Oxybuprocaine HCl],86.3
13,N#C/C(=C1/SC[C@@H](c2ccc(Cl)cc2Cl)S1)n1ccnc1 [Luliconazole],86.7
14,NC(=O)C1CCCc2c1[nH]c1ccc(Cl)cc21 (configuration not stated) [Selisistat (EX 527)],40.6
15,COC(=O)[C@H](Cc1ccccc1)NC(=O)[C@@H](N)CC(=O)O [Aspartame],90.6
16,C[C@]12CC[C@@H]3c4ccc(O)cc4C[C@@H](CCCCCCCCC[S+]([O-])CCCC(F)(F)C(F)(F)F)[C@H]3[C@@H]1CC[C@@H]2O (some centres not stated) [Fulvestrant],85.3

row,Structure (SMILES),cell viability [%]
1,CNC(=O)[C@@H](NC(=O)[C@H](CC(C)C)[C@H](O)C(=O)NO)C(C)(C)C [Marimastat (BB-2516)],87.9
2,CO/N=C(\C(=O)N[C@@H]1C(=O)N2C(C(=O)O)=C(COC(C)=O)CS[C@H]12)c1csc(N)n1 [Cefotaxime sodium],96.7
3,CC[C@H](NC(=O)[C@H](C)NC)C(=O)N1C[C@@H](O)C[C@H]1Cc1c(-c2[nH]c3cc(F)ccc3c2C[C@@H]2C[C@H](O)CN2C(=O)[C@H](CC)NC(=O)[C@H](C)NC)[nH]c2cc(F)ccc12 [Birinapant],125
4,CN1CCN2c3ncccc3Cc3ccccc3C2C1 (configuration not stated) [Mirtazapine],97.3
5,CC(C)[C@H](N)C(=O)OCCOCn1cnc2c(=O)nc(N)[nH]c21 [Valaciclovir HCl],98.2
6,CC1(C)O[C@@H]2C[C@H]3[C@@H]4C[C@H](F)C5=CC(=O)C=C[C@]5(C)[C@@]4(F)[C@@H](O)C[C@]3(C)[C@]2(C(=O)CO)O1 [Fluocinolone Acetonide],83.2
7,Cc1cc(C)nc(NS(=O)(=O)c2ccc(N)cc2)n1 [Sulfamethazine],94.9
8,Cc1cc(C)nc(NS(=O)(=O)c2ccc(N)cc2)n1 [Sulfamethazine Sodium Salt],92
9,CN(C(=O)CN(CCO)CC(=O)N(C)C(C)(C)Cc1ccccc1)C(C)(C)Cc1ccccc1 [Oxethazaine],87.4
10,CC(C)(Oc1ccc(Cl)cc1)C(=O)OCCOC(=O)c1cccnc1 [Etofibrate],96.2
11,COC(=O)N/N=C/c1c[n+]([O-])c2ccccc2[n+]1[O-] [Carbadox],112
12,CC1=NN(c2ccc(C)c(C)c2)C(=O)/C1=N\Nc1cccc(-c2cccc(C(=O)O)c2)c1O [Eltrombopag],86.7
13,CC1=NN(c2ccc(C)c(C)c2)C(=O)/C1=N\Nc1cccc(-c2cccc(C(=O)O)c2)c1O [Eltrombopag Olamine],78.5
14,CCn1c(=O)c2c(nc(/C=C/c3ccc(OC)c(OC)c3)n2C)n(CC)c1=O [Istradefylline],104
15,CC(C(O)c1ccc(O)cc1)N1CCC(Cc2ccccc2)CC1 (configuration not stated) [Ifenprodil Tartrate],91
16,C[C@@H]1C/C=C/C=C/C=C/C=C/[C@H](O[C@@H]2O[C@H](C)[C@@H](O)[C@H](N)[C@@H]2O)C[C@@H]2O[C@](O)(C[C@@H](O)C[C@H]3O[C@@H]3/C=C/C(=O)O1)C[C@H](O)[C@H]2C(=O)O [Natamycin],93.6

# A run of entries of the results above:
row,Structure (SMILES),cell viability [%]
12,CC1=NN(c2ccc(C)c(C)c2)C(=O)/C1=N\Nc1cccc(-c2cccc(C(=O)O)c2)c1O [Eltrombopag],86.7
13,CC1=NN(c2ccc(C)c(C)c2)C(=O)/C1=N\Nc1cccc(-c2cccc(C(=O)O)c2)c1O [Eltrombopag Olamine],78.5
